For the assay, the target named is ZNF274, full length, HA-tagged (ZNF274-HA); a Flag-tagged copy was coexpressed for the co-IP (human) (UniProt Q96GC6). As to the kind of experiment: co-IP; HEK293T cells cotransfected with HA- and Flag-tagged ZNF274 constructs, 24 h with doxycycline; lysis in IP buffer (0.5% NP-40, 500 mM Tris pH 7.4, 20 mM EDTA); anti-Flag Sepharose or anti-HA magnetic beads overnight at 4°C; immunoblot for HA, Flag and KAP1.

By UniProt entry, the sequences of proteins in these tests, tags left out.
UniProt Q96GC6: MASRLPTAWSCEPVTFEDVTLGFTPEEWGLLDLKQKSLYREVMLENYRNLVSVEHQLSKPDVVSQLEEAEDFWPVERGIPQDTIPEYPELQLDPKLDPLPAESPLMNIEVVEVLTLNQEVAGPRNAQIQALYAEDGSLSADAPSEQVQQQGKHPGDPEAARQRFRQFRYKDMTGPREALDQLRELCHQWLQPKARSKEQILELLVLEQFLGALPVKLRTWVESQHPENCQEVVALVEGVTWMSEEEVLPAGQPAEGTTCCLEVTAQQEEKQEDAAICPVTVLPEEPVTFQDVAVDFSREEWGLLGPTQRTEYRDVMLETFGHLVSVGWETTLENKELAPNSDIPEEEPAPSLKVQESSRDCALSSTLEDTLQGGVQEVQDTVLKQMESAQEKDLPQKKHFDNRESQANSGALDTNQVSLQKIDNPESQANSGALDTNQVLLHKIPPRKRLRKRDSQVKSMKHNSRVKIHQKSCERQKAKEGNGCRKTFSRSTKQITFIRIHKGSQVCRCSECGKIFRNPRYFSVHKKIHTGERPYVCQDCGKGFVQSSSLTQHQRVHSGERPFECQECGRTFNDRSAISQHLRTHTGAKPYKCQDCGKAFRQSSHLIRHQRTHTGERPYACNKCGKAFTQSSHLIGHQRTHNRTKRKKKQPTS

Results are given in words; binding and its absence hold for the method and conditions named. Binding seen in cells or lysates may run through a third protein. Some entries that bind do so weakly or less than the wild type.

Turning to “ZNF274, full length, HA-tagged (ZNF274-HA); a Flag-tagged copy was coexpressed for the co-IP (from UniProt Q96GC6 1-653)”, the binding entry is “binds”.

The record behind these values is PMC11397430.
